The source of these data is patent US20250122548A1.

By UniProt entry, the sequences of proteins in these tests, tags left out. Where a name states a change or a piece, a line headed by the entry shows the natural chain unless it says otherwise. Residues count along the entry.
UniProt P04756, residues 21-231: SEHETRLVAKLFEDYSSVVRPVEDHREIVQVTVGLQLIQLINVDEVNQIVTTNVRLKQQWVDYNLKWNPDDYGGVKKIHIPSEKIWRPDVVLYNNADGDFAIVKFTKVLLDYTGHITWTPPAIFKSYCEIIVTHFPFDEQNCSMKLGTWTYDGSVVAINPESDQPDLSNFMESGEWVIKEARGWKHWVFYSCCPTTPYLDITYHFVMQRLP
UniProt Q53B58: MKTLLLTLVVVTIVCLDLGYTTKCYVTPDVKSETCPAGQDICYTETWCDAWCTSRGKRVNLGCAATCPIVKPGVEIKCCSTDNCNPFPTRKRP
UniProt P01391: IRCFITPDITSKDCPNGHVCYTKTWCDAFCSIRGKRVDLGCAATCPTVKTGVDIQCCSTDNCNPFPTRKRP

Assay [1] concerns the target recombinant extracellular domain of the α1 subunit of muscle type nicotinic acetylcholine receptor (α1ECD) (UniProt P04756). Briefly: native gel shift assay (legend of FIG. 7C).
The target is the same in assay [2]. Put plainly: native gel shift assay, Tris-Glycine pH 8.3. For orientation: In EMSA bound probe runs differently from free probe, usually more slowly.

No constants are given. Whether binding was seen depends on the method and setting. Some results given as binding are weak or reduced against the parent protein; the word gives no strength.

For the substance “rec-Hannalgesin (from UniProt Q53B58 22-93) (ligand)”, the binding result in assay [1] and in assay [2] was “binds” in each case.
In the case of “α-Cobratoxin (αCtx) (Sigma-Aldrich, C6903), native αCTX isolated from Naja Kaouthia (from UniProt P01391 1-71) (ligand)”, the binding result in assay [1] and in assay [2] was “binds” each time.
